This note sets out measurements from PMC9218118.

Protein sequences, listed by entry. Tags and fused reporters are not part of them. Residues count along the entry.
UniProt Q05030, residues 32-1097: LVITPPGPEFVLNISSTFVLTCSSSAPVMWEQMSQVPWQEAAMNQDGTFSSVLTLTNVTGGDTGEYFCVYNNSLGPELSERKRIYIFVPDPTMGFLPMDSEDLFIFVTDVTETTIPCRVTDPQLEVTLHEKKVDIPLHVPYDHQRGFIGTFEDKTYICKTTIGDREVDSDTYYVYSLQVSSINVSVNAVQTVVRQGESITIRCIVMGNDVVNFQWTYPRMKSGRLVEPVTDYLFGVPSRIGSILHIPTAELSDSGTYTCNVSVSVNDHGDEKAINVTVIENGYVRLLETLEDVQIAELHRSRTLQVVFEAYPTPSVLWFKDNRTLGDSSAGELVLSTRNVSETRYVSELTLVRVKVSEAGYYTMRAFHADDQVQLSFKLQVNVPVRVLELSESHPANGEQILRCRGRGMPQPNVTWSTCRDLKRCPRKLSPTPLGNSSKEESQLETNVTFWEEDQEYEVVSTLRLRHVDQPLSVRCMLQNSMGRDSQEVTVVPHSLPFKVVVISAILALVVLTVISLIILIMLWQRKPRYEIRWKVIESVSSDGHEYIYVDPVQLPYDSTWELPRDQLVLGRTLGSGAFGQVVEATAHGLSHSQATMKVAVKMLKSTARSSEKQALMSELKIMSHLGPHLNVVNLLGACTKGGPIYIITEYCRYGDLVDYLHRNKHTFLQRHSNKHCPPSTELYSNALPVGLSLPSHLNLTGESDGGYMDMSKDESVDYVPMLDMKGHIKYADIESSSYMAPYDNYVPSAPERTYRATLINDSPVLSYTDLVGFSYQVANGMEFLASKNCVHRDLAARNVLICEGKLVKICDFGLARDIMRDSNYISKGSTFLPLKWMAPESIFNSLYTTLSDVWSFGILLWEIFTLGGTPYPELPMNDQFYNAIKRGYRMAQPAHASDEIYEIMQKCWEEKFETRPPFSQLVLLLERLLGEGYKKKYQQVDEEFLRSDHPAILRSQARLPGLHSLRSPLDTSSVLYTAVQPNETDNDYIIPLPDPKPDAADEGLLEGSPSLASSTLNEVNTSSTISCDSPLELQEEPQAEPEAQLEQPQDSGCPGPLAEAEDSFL

The target in the experiment is T1, Recombinant TEM1 (rTEM1), recombinant extracellular domains (D1-4) of TEM1 protein (human) (UniProt Q9HCU0).
T1 sequence: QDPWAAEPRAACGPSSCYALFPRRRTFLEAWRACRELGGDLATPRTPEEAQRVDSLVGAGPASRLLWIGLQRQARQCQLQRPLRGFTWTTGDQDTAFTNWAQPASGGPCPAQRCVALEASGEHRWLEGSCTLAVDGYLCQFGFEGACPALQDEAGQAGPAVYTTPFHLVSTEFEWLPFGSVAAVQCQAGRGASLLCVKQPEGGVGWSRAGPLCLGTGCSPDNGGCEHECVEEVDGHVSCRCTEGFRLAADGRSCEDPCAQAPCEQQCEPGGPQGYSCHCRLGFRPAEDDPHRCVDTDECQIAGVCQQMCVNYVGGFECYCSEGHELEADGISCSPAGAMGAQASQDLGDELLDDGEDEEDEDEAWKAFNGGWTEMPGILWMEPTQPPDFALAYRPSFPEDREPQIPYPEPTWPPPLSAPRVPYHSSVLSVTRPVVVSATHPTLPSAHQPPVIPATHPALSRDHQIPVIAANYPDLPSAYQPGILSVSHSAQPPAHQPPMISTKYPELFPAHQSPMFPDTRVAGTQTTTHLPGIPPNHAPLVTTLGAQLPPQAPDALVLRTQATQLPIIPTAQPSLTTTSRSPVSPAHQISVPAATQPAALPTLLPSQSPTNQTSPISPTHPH
Put plainly: co-IP; H9C2 cells treated with 1 μM rTEM1 for 1 h at 37 °C, lysed; immunoprecipitation with anti-TEM1 antibody or rabbit IgG overnight at 4 °C; western blot with anti-PDGFR-β and anti-TEM1; only the target purified.

Results are given in words; binding and its absence hold for the method and conditions named. In cells and extracts the contact can be indirect. Some entries that bind do so weakly or less than the wild type.

For the substance “platelet-derived growth factor (PDGF) receptor (PDGFR-β) (from UniProt Q05030 32-1097)”, the binding entry is “binds”.
